These are yes or no findings as the source states them, for the method shown. Binding seen in cells or lysates may run through a third protein. Binding can be weak; no strength is given. Tags and fused reporters may be left off the sequences shown.
Target: T1, Myc-Tag Hand1 (Myc-Hand1) (mouse) (UniProt Q64279)
T1 sequence: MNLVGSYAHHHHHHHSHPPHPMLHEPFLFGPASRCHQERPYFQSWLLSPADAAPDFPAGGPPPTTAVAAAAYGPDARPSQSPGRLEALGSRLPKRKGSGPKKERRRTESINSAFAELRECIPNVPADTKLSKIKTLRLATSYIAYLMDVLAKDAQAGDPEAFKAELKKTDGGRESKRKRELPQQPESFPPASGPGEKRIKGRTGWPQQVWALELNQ
Assay: co-IP; lysates of JEG-3 cells transfected with JNK1* alone, Myc-Hand1 alone or both; immunocomplex precipitated by a Myc or Flag antibody, Western for Flag-p-JNK1

binding: binds
Substance: constitutively active form of JNK1 (JNK1*), Flag-JNKK2-JNK1 fusion protein (enzyme)
